Among all 400,000 compounds or so, about 13,000 (3.2%) were called active. Inconclusive means that the source gave no clear call. Such entries were picked first, then a sample of the others. Calls follow the shape of the dose curve; as a rule, active = well fitted cell-killing curve with a large enough effect; inconclusive = small, poorly fitted or top-dose-only effect, or effect the other way; inactive = flat fitted curve, though single readings scatter. Potencies beside an inconclusive call are fits to weak or partial responses and may not hold up.
Assay: qHTS assay for MDR1-selective chemotherapeutics: Primary screen using the drug-selected MDR subline cells KB-V1; also: nearly all actives have a fitted effect of over 60% in size
Settings: KB-V1 MDR cells viability, CellTiter-Glo, 72 h; activity change, negative = cytotoxicity: at 46.1 µM (top of the series)
Outline: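 Cells of the MDR subline KB-V1 are plated, dosed with compound at multiple concentrations, and incubated 72 h at 37 degrees C; CellTiter-Glo is then added and luminescence read after 10 min.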
% is scaled to controls: 0 for no effect and ±100 for the full control effect; potency is read from the fitted curve at half-maximal effect.

Structure (SMILES) | Potency | activity change, negative = cytotoxicity
CN=C1SC(CC(=O)Nc2sc(C)c(C)c2C(=O)OC)C(=O)N1C (stereo not given) | inconclusive: 9.2 µM [cytotoxic, partial curve] | –
CC(Sc1ccsc1[N+](=O)[O-])C(=O)NCCc1ccc(Cl)cc1 (stereo not given) | inconclusive: 18.4 µM [cytotoxic, single point] | –
CCOc1cc(NC(=O)C2CCCCC2)c(OCC)cc1NC(=O)c1ccco1 | inconclusive: 5.17 µM [cytotoxic, full curve] | –
CC(C)NC(=O)c1ccc2c3n(nc2c1)-c1ccccc1CO3 | active: 5.8 µM | –
O=C1c2ccccc2NC(c2cccc(Cl)c2)N1N=C1CCCCCC1 (stereo not given) | active: 25.9 µM | –
O=C(CCNS(=O)(=O)c1cccc(Cl)c1)OCC(=O)N1CCN(C(=O)c2ccco2)CC1 | inconclusive: 18.4 µM [rising, single point] | –
COc1ccc(C(=O)NCC[N+](C)(C)C)cc1 | – | inactive: 4.17%
Oc1ccc(C=NN=Cc2ccco2)c(O)c1 | inconclusive: 18.4 µM [cytotoxic, partial curve, poor fit] | –
O=C(CSc1nc2ccsc2c(=O)n1Cc1ccc(C(=O)O)cc1)NCC1CCCO1 (stereo not given) | inconclusive: 20.6 µM [rising, single point] | –
CCN1C(Br)=CCc2ccccc21 | inconclusive: 25.9 µM [rising, single point] | –
CCc1cc(C(=O)NNC(=S)Nc2cc(C)ccc2C)cs1 | inconclusive: 29.1 µM [cytotoxic, single point] | –
COc1ccc(COC(=O)c2ccc(C)c(S(=O)(=O)N3CCOCC3)c2)cc1F | inconclusive: 23.1 µM [cytotoxic, single point] | –
OC(COCC(F)(F)C(F)(F)C(F)(F)C(F)F)Cn1c2ccc(Cl)cc2c2cc(Cl)ccc21 (stereo not given) | active: 18.4 µM | –
CCOCCCNC(=O)c1cn(CC)c2ccc(S(=O)(=O)N(C)C3CCCCC3)cc2c1=O | inconclusive: 0.651 µM [cytotoxic, full curve] | –
O=C1NC(=S)S/C1=C\C=C\c1ccc([N+](=O)[O-])o1 | active: 4.11 µM | –
Nc1nc(/C=C/c2cccnc2)nc(-c2ccccc2O)n1 | inconclusive: 29.1 µM [cytotoxic, single point] | –
O=C(CN1C(=O)NC2(CCCCC2)C1=O)N1CCc2ccccc2C1 | inconclusive: 32.6 µM [rising, single point] | –
COC(=O)c1ccc(NC(=O)CN(Cc2ccccc2)S(=O)(=O)c2ccc(C)cc2)cc1 | inconclusive: 20.6 µM [cytotoxic, partial curve, poor fit] | –
Cc1sc2ncnc(N3CCN(c4ncccn4)CC3)c2c1C | inconclusive: 18.4 µM [cytotoxic, partial curve] | –
O=C(NCCc1ccccc1)c1ccc(Cl)c(S(=O)(=O)N2CCOCC2)c1 | inconclusive: 0.731 µM [cytotoxic, full curve, poor fit] | –
CC(C)CCNC(=O)NC(=O)CSc1nnc(-c2ccccc2Br)o1 | inconclusive: 20.6 µM [cytotoxic, single point] | –
COc1ccc2c(c1)C(C)=CC(C)(C)N2S(=O)(=O)c1ccc(Br)cc1 | active: 3.26 µM | –
CC(=O)Nc1cccc(NC(=O)CSc2ccc(-c3ccccn3)nn2)c1 | inconclusive: 14.6 µM [cytotoxic, partial curve] | –
O=C(c1cc(COc2ccc3ncccc3c2)on1)N1CCCC(O)C1 (stereo not given) | – | inactive: -2.71%

Structure (SMILES) | Potency | activity change, negative = cytotoxicity
Cc1ccc(Cl)cc1N1CCN(C(=O)c2cnn(C(C)(C)C)c2C2CCN(C(=O)OC(C)(C)C)CC2)CC1 | inconclusive: 23.1 µM [cytotoxic, single point] | –
CCOc1ccc(NC(=O)Cn2cc(C(=O)c3ccc(CC)cc3)c(=O)c3cc4c(cc32)OCO4)cc1 | inconclusive: 29.1 µM [rising, single point] | –
O=C(COc1ccc(S(=O)(=O)N2CCOCC2)cc1)N1CCc2ccccc2C1 | inconclusive: 7.31 µM [cytotoxic, partial curve] | –
CNC(=S)N/N=C/c1cn(CCOc2ccc(OC)cc2)c2ccccc12 | inconclusive: 7.31 µM [cytotoxic, partial curve] | –
COc1ccc(CNc2nc(-c3ccc(OC)cc3)cc(C(F)(F)F)n2)cc1 | – | inactive: 2.08%
Cc1cccc(C(C)C)c1NC(=O)C1CCN(S(=O)(=O)c2ccccc2)CC1 | inconclusive: 8.2 µM [cytotoxic, partial curve] | –
COc1cc(/C=C2/SC(=O)NC2=O)ccc1OC(=O)c1ccco1 | inconclusive: 13 µM [cytotoxic, partial curve] | –
CS(=O)(=O)N(CCCC(=O)N1CCCCCC1)c1cccc(Cl)c1 | inconclusive: 3.26 µM [cytotoxic, full curve, poor fit] | –
COCCNC(=O)c1cc(S(=O)(=O)N2CCOCC2)ccc1SCc1cccc(OC)c1OC | inconclusive: 20.6 µM [cytotoxic, single point] | –
O=C(CSc1ccc(-c2ccncc2)nn1)N1CCN(c2ccccc2)CC1 | active: 14.6 µM | –
CCCCc1cc(=O)oc2cc(OCC(=O)N(CC)CC)c(Cl)cc12 | – | inconclusive: 4.3%
COc1cccc(N(C(=O)c2snc(C(N)=O)c2N)C(C(=O)NCC2CCCO2)c2ccc(C)o2)c1 (stereo not given) | inconclusive: 8.2 µM [cytotoxic, partial curve] | –
O=C(NNS(=O)(=O)c1ccc(F)cc1)c1ccccc1F | – | inactive: 0%
CS(=O)(=O)N(CC(=O)NCCSC1CCCCC1)c1cccc(F)c1 | active: 14.6 µM | –
CN(C)CCN(C(=O)CCc1ccccc1)c1nc2c(F)cc(F)cc2s1 | – | inactive: 0.383%
O=C(Nc1nnc(SCc2ccc(F)cc2)s1)C1CC(=O)N(c2ccc3c(c2)OCCO3)C1 (stereo not given) | inconclusive: 29.1 µM [cytotoxic, single point] | –
CC/C(=N\NC(=S)NC(C)C)c1ccc(OC(F)F)cc1 | inconclusive: 20.6 µM [cytotoxic, single point] | –
COc1ccccc1[C@@H]1C(c2ccccc2)=NN(c2ccc(Br)cc2)[C@H]1C(=O)N1CCOC1=O | – | inactive: 29.9%
Cc1ccc(NC(=O)COC(=O)CN2C(=O)NC3(CCCC3)C2=O)cc1Cl | inconclusive: 23.1 µM [rising, single point] | –
C=CCNC(=S)/C(=C(\[O-])c1ccc(Cl)cc1)[n+]1ccccc1 | inconclusive: 29.1 µM [rising, partial curve, poor fit] | –
Cc1ccc(-c2cc(C(=O)NCc3cn(C)nc3C)c3cc(Br)ccc3n2)cc1 | inconclusive: 1.64 µM [cytotoxic, full curve] | –
Oc1cccc(CN2CCN(c3ncc(Cc4ccccc4)cn3)CC2)c1 | inconclusive: 16.4 µM [cytotoxic, single point] | –
Nc1nc(NS(=O)(=O)c2ccc(Cl)cc2)nn1-c1ccccc1 | – | inactive: 3.8%
Cc1[nH]nc(-c2ccc(OCc3cnn(-c4ccccc4)c3)cc2O)c1Oc1ccc(Cl)cc1 | inconclusive: 29.1 µM [cytotoxic, single point] | –

Structure (SMILES) | Potency | activity change, negative = cytotoxicity
COc1cccc(NC(=O)N2CCCC(C(=O)Nc3ccccc3OC)C2)c1 (stereo not given) | active: 20.6 µM | –
CCn1c(CNC(=O)c2ccccc2)nc2ccccc21 | inconclusive: 16.4 µM [cytotoxic, single point] | –
CCn1cnc2cc(NCc3ccc(C)cc3)ccc21 | inconclusive: 16.4 µM [cytotoxic, partial curve] | –
CC1CN(C(=O)COC(=O)c2ccc(N(C)C)cc2)CC(C)O1 (stereo not given) | – | inactive: 15.7%
Cc1ccc(Cn2ccc(C3CC3)n2)cc1 | inconclusive: 29.1 µM [rising, single point] | –
Cc1cc(Br)c(S(=O)(=O)NCCN2CCOCC2)cc1C | inconclusive: 16.4 µM [cytotoxic, single point] | –
COc1ccccc1CC(=O)NCC(c1ccco1)N1CCCCC1 (stereo not given) | inconclusive: 13 µM [cytotoxic, partial curve, poor fit] | –
CN(C(=O)c1ccccc1)c1ccc(OCC(=O)NC2CCS(=O)(=O)C2)cc1 (stereo not given) | inconclusive: 11.6 µM [rising, partial curve, poor fit] | –
COC1(OC)C(/C=C/c2ccc(C)cc2)C(C#N)(C#N)C1(OC)OC (stereo not given) | – | inactive: -25.9%
[N-]=[N+]=CC(=O)CC(c1ccccc1)N1C(=O)c2ccccc2C1=O (stereo not given) | inconclusive: 25.9 µM [rising, single point] | –
CNC(=O)NC(=O)C(NC1CCCc2ccccc21)c1ccccc1 (stereo not given) | – | inactive: -12.8%
Cc1cc(C)c(NC(=O)CSc2n[nH]c(-c3ccccc3Cl)n2)c(C)c1 | inconclusive: 29.1 µM [cytotoxic, single point] | –
CC(=O)N1CCN(S(=O)(=O)c2cccc(C(=O)OCc3ccc(F)cc3)c2)CC1 | – | inactive: -23.6%
O=C(CSc1ncnc2c1cnn2-c1ccc(F)cc1)NCC1CCCO1 (stereo not given) | – | inactive: 3.7%
CC1CCCCC1NC(=O)CCCN1C(=O)c2ccccc2C1=O (stereo not given) | – | inactive: 5.7%
Cc1[nH][nH]c(=O)c1C(c1c(C)[nH][nH]c1=O)c1cn(Cc2ccc(Cl)c(Cl)c2)c2ccccc12 | active: 13 µM | –
Cc1cc(C)c(S(=O)(=O)NCCSCc2ccco2)c(C)c1 | – | inactive: -15.2%
CCOC(=O)N1CCC(N2C(=O)c3ccc(C(=O)NCCOC)cc3C2=O)CC1 | – | inactive: 0%
COc1ccc(Cc2nnc(SCC(=O)c3c(N)n(C4CC4)c(=O)[nH]c3=O)o2)cc1 | – | inactive: 28%
Cc1ccc(SCC(=O)NNC(=O)c2ccccc2)cc1C | – | inactive: -5.41%
Nc1nc2ccc(C(=O)Nc3ccccc3)cc2s1 | inconclusive: 20.6 µM [rising, single point] | –
CSCCC(NS(=O)(=O)c1ccccc1)C(=O)OC(C)C(=O)Nc1ccc(Cl)cn1 (stereo not given) | inconclusive: 0.103 µM [rising, full curve] | –

22 entries from above in another layout:
Structure (SMILES),Potency,"activity change, negative = cytotoxicity"
Cc1[nH]nc(-c2ccc(OCc3cnn(-c4ccccc4)c3)cc2O)c1Oc1ccc(Cl)cc1,"inconclusive: 29.1 µM [cytotoxic, single point]",–
COc1cccc(NC(=O)N2CCCC(C(=O)Nc3ccccc3OC)C2)c1 (stereo not given),active: 20.6 µM,–
CCn1c(CNC(=O)c2ccccc2)nc2ccccc21,"inconclusive: 16.4 µM [cytotoxic, single point]",–
CCn1cnc2cc(NCc3ccc(C)cc3)ccc21,"inconclusive: 16.4 µM [cytotoxic, partial curve]",–
CC1CN(C(=O)COC(=O)c2ccc(N(C)C)cc2)CC(C)O1 (stereo not given),–,inactive: 15.7%
Cc1ccc(Cn2ccc(C3CC3)n2)cc1,"inconclusive: 29.1 µM [rising, single point]",–
Cc1cc(Br)c(S(=O)(=O)NCCN2CCOCC2)cc1C,"inconclusive: 16.4 µM [cytotoxic, single point]",–
COc1ccccc1CC(=O)NCC(c1ccco1)N1CCCCC1 (stereo not given),"inconclusive: 13 µM [cytotoxic, partial curve, poor fit]",–
CN(C(=O)c1ccccc1)c1ccc(OCC(=O)NC2CCS(=O)(=O)C2)cc1 (stereo not given),"inconclusive: 11.6 µM [rising, partial curve, poor fit]",–
COC1(OC)C(/C=C/c2ccc(C)cc2)C(C#N)(C#N)C1(OC)OC (stereo not given),–,inactive: -25.9%
[N-]=[N+]=CC(=O)CC(c1ccccc1)N1C(=O)c2ccccc2C1=O (stereo not given),"inconclusive: 25.9 µM [rising, single point]",–
CNC(=O)NC(=O)C(NC1CCCc2ccccc21)c1ccccc1 (stereo not given),–,inactive: -12.8%
Cc1cc(C)c(NC(=O)CSc2n[nH]c(-c3ccccc3Cl)n2)c(C)c1,"inconclusive: 29.1 µM [cytotoxic, single point]",–
CC(=O)N1CCN(S(=O)(=O)c2cccc(C(=O)OCc3ccc(F)cc3)c2)CC1,–,inactive: -23.6%
O=C(CSc1ncnc2c1cnn2-c1ccc(F)cc1)NCC1CCCO1 (stereo not given),–,inactive: 3.7%
CC1CCCCC1NC(=O)CCCN1C(=O)c2ccccc2C1=O (stereo not given),–,inactive: 5.7%
Cc1[nH][nH]c(=O)c1C(c1c(C)[nH][nH]c1=O)c1cn(Cc2ccc(Cl)c(Cl)c2)c2ccccc12,active: 13 µM,–
Cc1cc(C)c(S(=O)(=O)NCCSCc2ccco2)c(C)c1,–,inactive: -15.2%
CCOC(=O)N1CCC(N2C(=O)c3ccc(C(=O)NCCOC)cc3C2=O)CC1,–,inactive: 0%
COc1ccc(Cc2nnc(SCC(=O)c3c(N)n(C4CC4)c(=O)[nH]c3=O)o2)cc1,–,inactive: 28%
Cc1ccc(SCC(=O)NNC(=O)c2ccccc2)cc1C,–,inactive: -5.41%
Nc1nc2ccc(C(=O)Nc3ccccc3)cc2s1,"inconclusive: 20.6 µM [rising, single point]",–
